In PubChem BioAssay AID2685 (National Center for Advancing Translational Sciences (NCATS), 2010):
The other results are listed elsewhere or left out. Shown are side measurements of this screen, not its main read-out; they come without a call. Compounds called inactive in the main read-out are mostly missing here. The note in brackets gives the kind of curve behind each potency; many fits are weak.

Assay: qHTS Assay for Lipid Storage Modulators in Drosophila S3 Cells;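 as to cell number change: cells counted by Cell Tracker Red CMTPX staining in the red channel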
Details: BODIPY lipid droplet fluorescence, 18-24 h; for cell number change: measured here: cell count max response, cells fed with added oleic acid
How it was run: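 Drosophila S3 cells got compounds at several concentrations plus oleic acid (400 uM solution). Laser-scanning cytometry with 488 nm excitation read lipid droplets at 500-530 nm and cells at 575-640 nm. Percent activity was relative to 20 uM Triacsin C.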

[1] = measured here: cell number channel AC50, cells fed with added oleic acid
[2] = measured here: lipid fluorescence (Fed channel) AC50, cells fed with added oleic acid

Row | SMILES | AC50 [1] | cell number change | AC50 [2]
1 | O=C(COc1ccc(CO)cc1Cl)Nc1ccc(F)cc1 | 0.58 µM [falling, single point] | – | –
2 | CNC(=S)Nc1ccc(C23CC4CC(CC(C4)C2)C3)cc1 | 14.6 µM [falling, partial curve, poor fit] | -38.7% | 11.6 µM [falling, partial curve]
3 | O=C(O)c1ccc(-c2nc3ccccc3s2)o1 | – | 7.51% | 18.4 µM [rising, single point]
4 | CC1N(C)c2cc(NC(=O)c3ccco3)ccc2C1(C)C (configuration not stated) | 29.1 µM [falling, single point] | -84.9% | 32.6 µM [falling, partial curve]
5 | Cc1cc(C(=O)OCC(=O)N(C)c2c(N)n(Cc3ccccc3)c(=O)[nH]c2=O)c(C)n1-c1ccccc1 | 0.651 µM [falling, full curve] | -6.7% | 0.651 µM [falling, full curve]
6 | O=C(CSc1ccc2nnc(-c3ccccn3)n2n1)NCC1CCCO1 (configuration not stated) | 0.164 µM [rising, full curve] | 30.6% | 29.1 µM [rising, single point]
7 | Cc1cccc(N(CC(=O)N2CCCCCC2)S(C)(=O)=O)c1C | – | -8.07% | 0.92 µM [falling, full curve, poor fit]
8 | COc1ccc(Cn2c(C3CC3)nc3ccc(NC(=O)c4ccco4)cc3c2=O)cc1 | – | -1.58% | 0.517 µM [rising, full curve, poor fit]
9 | O=C(N/N=C\c1ccco1)c1cncc(Br)c1 | – | 3.62% | –
10 | CC(NC(=O)CN(C)Cc1cccc(Cl)c1)c1ccccc1 (configuration not stated) | – | -15.4% | –
11 | CCCOc1ccc(Oc2ccc(S(=O)(=O)N3CCN(C)CC3)cn2)cc1 | 5.17 µM [rising, partial curve] | 40.3% | 4.11 µM [rising, single point]
12 | O=C(Nc1ccc2c(c1)OCO2)c1ccncc1 | – | – | 14.6 µM [rising, partial curve]
13 | OC(c1cc(-c2ccc(Cl)cc2)nc2ccccc12)C1CCCCN1 (configuration not stated) | 23.1 µM [falling, single point] | -45.5% | 29.1 µM [falling, single point]
14 | O=c1c2ccccc2c(C=Nc2ccc(S(=O)(=O)Nc3ncccn3)cc2)c(O)n1-c1cccc(Cl)c1 | 29.1 µM [rising, single point] | 109% | –
15 | CCN(CC)c1ccc(N=Nc2nn(C)c(C)c2[N+](=O)[O-])cc1 | – | -12.3% | –
16 | O=C1/C(=C\c2ccc([N+](=O)[O-])cc2)CCc2ccccc21 | – | 5.46% | 0.291 µM [falling, full curve, poor fit]
17 | Cc1ccc(C(=O)Nc2ccc(N3CCN(C(=O)c4cccs4)CC3)cc2)c(Cl)c1 | 0.164 µM [rising, partial curve, poor fit] | 31.1% | 0.58 µM [falling, single point]
18 | Cc1cc(C)n(-c2ccc(C(=O)NCc3cccs3)cc2)n1 | – | -5.85% | –
19 | COc1ccc(C(=O)NCc2ncccc2C)cc1OC1CCN(C(C)=O)CC1 | – | -18.3% | 0.58 µM [falling, single point]
20 | O=C1C2C(C(=O)N1c1ccccc1)N1CCCN1C2c1ccccc1 (configuration not stated) | 0.731 µM [falling, full curve] | – | 0.13 µM [falling, full curve, poor fit]
21 | CC(OC(=O)c1ncc(Cl)c(Cl)c1Cl)C(=O)NC1(C#N)CCCCC1 (configuration not stated) | 0.00731 µM [rising, full curve, poor fit] | – | –

Two compounds picked at random from the list so far:
Row | SMILES | AC50 [1] | cell number change | AC50 [2]
11 | CCCOc1ccc(Oc2ccc(S(=O)(=O)N3CCN(C)CC3)cn2)cc1 | 5.17 µM [rising, partial curve] | 40.3% | 4.11 µM [rising, single point]
16 | O=C1/C(=C\c2ccc([N+](=O)[O-])cc2)CCc2ccccc21 | – | 5.46% | 0.291 µM [falling, full curve, poor fit]

Continued.

Row | SMILES | AC50 [1] | cell number change | AC50 [2]
22 | O=C(COc1ccc(F)cc1)NC1CC1 | – | 8.96% | 0.461 µM [falling, full curve]
23 | COc1ccc(/C=N/NC(=O)CNC(=O)c2ccncc2)cc1 | 6.51 µM [rising, single point] | 19.4% | –
24 | O=C(NC1CCCCCC1)C1CCN(S(=O)(=O)c2c(Cl)cccc2Cl)CC1 | – | -23.9% | 20.6 µM [falling, single point]
25 | NC(=O)c1ccccc1NC(=O)CCCc1ccccc1 | – | 19.3% | –
26 | Clc1cccc(Cl)c1CSc1nnc(CN2CCOCC2)n1-c1ccccc1 | – | -12% | –
27 | CC(Oc1ccc(Cl)cc1Cl)C(=O)NC(=S)N1CCc2ccccc21 (configuration not stated) | – | -9.5% | 20.6 µM [falling, single point]
28 | O=C(COc1ccccc1Cl)Nc1cccc(S(=O)(=O)NC2=NCCCCC2)c1 | 0.259 µM [rising, partial curve] | 55.5% | –
29 | CC1CCC(C(=O)NC(C(=O)NCc2ccccn2)C(C)C)CC1 (configuration not stated) | 2.59 µM [falling, single point] | -22.3% | 1.16 µM [falling, full curve]
30 | CN(C(=O)c1ccncc1)c1nnc(-c2ccccn2)s1 | 9.2 µM [rising, partial curve] | 36.1% | –
31 | N#C/C(=N\Nc1cc(Cl)cc(Cl)c1)c1nnc2n1CCCCC2 | – | -3.38% | 20.6 µM [rising, single point]
32 | Cc1ccc(Nc2nc(N)nc(CSc3nc(C)cc(C)n3)n2)cc1 | 0.517 µM [rising, full curve] | – | –
33 | CCOC(=O)N/N=C/c1c[nH]c2ccccc12 | – | -6.38% | –
34 | CC(NC(=O)c1cccc(S(=O)(=O)N2CCN(C)CC2)c1)c1ccc(Cl)cc1Cl (configuration not stated) | 16.4 µM [rising, partial curve] | 118% | –
35 | CCN(CC)c1ccc(N=C2C(=O)Nc3ccccc32)cc1 | 29.1 µM [falling, single point] | -58.7% | 16.4 µM [falling, partial curve]
36 | CCNC(=O)c1cc(Cl)ccc1OC | 29.1 µM [rising, single point] | 63.6% | –
37 | CCOc1ccccc1C(=O)NCC(=O)N(C)Cc1ccccc1C | – | 2.78% | 0.58 µM [rising, single point]
38 | O=c1[nH]c2ccccc2cc1-c1noc(-c2cccnc2)n1 | 0.58 µM [rising, full curve] | 22.2% | 0.82 µM [rising, full curve]
39 | C=CCn1c(CCn2c3ccccc3c3ccccc32)n[nH]c1=S | – | 24.6% | 1.84 µM [rising, partial curve, poor fit]
40 | COCCCN1C(=O)C(=O)/C(=C(/O)c2ccc3c(c2)OCCO3)C1c1ccc(C(=O)OC)cc1 (configuration not stated) | – | 10.5% | 7.31 µM [rising, partial curve, poor fit]
41 | Cc1cc(Br)ccc1N=C1NC(=O)CS1 | – | -22.8% | –
42 | O=C1c2ccsc2SCCN1Cc1ccc(F)cc1 | – | 19.1% | 29.1 µM [rising, single point]

Row | SMILES | AC50 [1] | cell number change | AC50 [2]
43 | Cn1cc(Br)c(C(=O)NNC(=O)c2ccc(Br)cc2)n1 | – | 13.8% | 9.2 µM [rising, partial curve, poor fit]
44 | COc1ccc(S(=O)(=O)N2CCCC(C(=O)NCc3ccccn3)C2)cc1 (configuration not stated) | – | -7.62% | 0.206 µM [falling, partial curve, poor fit]
45 | Cc1cc(C(=O)Nc2nnc(C3CCCCC3)s2)no1 | – | 9.57% | 14.6 µM [rising, single point]
46 | Cc1cccc(C)c1NC(=S)N1CCCN(C)CC1 | – | 27.1% | 29.1 µM [rising, single point]
47 | CCOCCCNC(=O)C1CCN(C(=O)Nc2ccc(Cl)cc2)CC1 | – | -2.57% | 9.2 µM [falling, partial curve, poor fit]
48 | CC(Oc1ccccc1Cl)C(=O)Nc1ccccc1C(=O)N1CCOCC1 (configuration not stated) | 0.0731 µM [rising, full curve, poor fit] | -12.9% | 29.1 µM [falling, single point]
49 | Cc1csc(NC(=O)c2cnccn2)n1 | – | -18.1% | 0.116 µM [rising, full curve, poor fit]
50 | Cc1ccc(N(Cc2ccccc2)C(=O)c2cc(S(=O)(=O)N3CCOCC3)ccc2C)cc1 | – | 23.9% | 18.4 µM [rising, partial curve]
51 | CC1CCN(C(=O)COC(=O)c2n[nH]c3ccccc23)CC1 | – | 20.9% | 11.6 µM [rising, single point]
52 | O=C(CSc1nnc(COc2ccc(F)cc2)o1)N1c2ccccc2CCc2ccccc21 | – | -26% | 11.6 µM [falling, partial curve, poor fit]
53 | Cc1ccc(-c2nc3c(c(=O)[nH]c(=O)n3CC(C)C)n2CC(C)C)cc1[N+](=O)[O-] | – | – | 0.58 µM [rising, single point]
54 | Cc1nc(N2CCOCC2)nc(OC(C)C)c1[N+](=O)[O-] | – | 17.4% | 20.6 µM [rising, single point]
55 | CCOc1ccc2nc(NCCCNS(=O)(=O)c3ccccc3)c(C#N)cc2c1 | – | 2.01% | –
56 | COCCNC(=O)CCn1nc(-c2ccc(C)cc2)ccc1=O | – | 25.7% | 0.0731 µM [rising, full curve, poor fit]
57 | COc1ccc(OCCOC(=O)c2cc(S(=O)(=O)N3CCOCC3)c(Cl)cc2Cl)cc1 | – | – | 6.51 µM [falling, single point]
58 | COc1ccccc1CCNC(=O)CCn1c(=O)oc2ccccc21 | – | 40% | –
59 | Cc1c(Cl)cccc1-n1c(SCC(=O)N(C)Cc2ccccc2)nnc1-c1ccncc1 | 0.58 µM [rising, full curve] | 30.8% | 2.91 µM [rising, partial curve]
60 | CCOC(=O)c1c(NC(=O)C2CCCCC2C(=O)O)sc2c1CCCCC2 (configuration not stated) | – | 0.967% | –
61 | Cn1cc(S(=O)(=O)CC(=O)N2CCCc3ccccc32)c2ccccc21 | – | -7.06% | –
62 | CN(c1ccccc1)S(=O)(=O)c1ccc(C(=O)NCc2ccco2)cc1 | 0.00461 µM [falling, full curve, poor fit] | – | –
